We go through two molecules from article doi:10.1101/2025.05.09.653063 (bioRxiv, 2025).

These are yes or no findings as the source states them, for the method shown. For part of these data: In cells and extracts the contact can be indirect. Some binding calls cover weakened binding; strength is not graded here. For part of these data: Where a sequence is shown, tags or fusion partners need not be part of it.

Assay [1] concerns the target PsmA purified from E. coli (Saccharolobus islandicus REY15A) (UniProt C3MQ43). Nature of the assay: focused ion beam electron microscopy.
Assay [2] concerns the target T1, His-tagged wild type PsmA (Saccharolobus islandicus REY15A) (UniProt C3MQ43).
T1 sequence: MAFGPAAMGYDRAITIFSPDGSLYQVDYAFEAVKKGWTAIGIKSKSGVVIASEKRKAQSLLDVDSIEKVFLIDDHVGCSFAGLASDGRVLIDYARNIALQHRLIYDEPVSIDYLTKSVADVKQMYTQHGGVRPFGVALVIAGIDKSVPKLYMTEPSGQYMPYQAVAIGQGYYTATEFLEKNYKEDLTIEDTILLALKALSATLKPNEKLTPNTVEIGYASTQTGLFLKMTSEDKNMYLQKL
Nature of the assay: pull-down.

The target in assay [3] is T2, His-tagged PsmA T213E (Saccharolobus islandicus REY15A) (UniProt C3MQ43).
T2 sequence: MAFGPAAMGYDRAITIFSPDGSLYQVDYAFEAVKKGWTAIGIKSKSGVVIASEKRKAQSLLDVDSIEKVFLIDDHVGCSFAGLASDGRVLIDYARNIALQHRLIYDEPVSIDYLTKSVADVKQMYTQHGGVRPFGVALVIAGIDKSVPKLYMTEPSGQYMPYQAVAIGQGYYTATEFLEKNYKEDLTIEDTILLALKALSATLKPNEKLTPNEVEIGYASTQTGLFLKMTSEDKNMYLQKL
Nature of the assay: pull-down.

B1: PsmA purified from E. coli (protein, UniProt C3MQ43 1-241)
chain: MAFGPAAMGYDRAITIFSPDGSLYQVDYAFEAVKKGWTAIGIKSKSGVVIASEKRKAQSLLDVDSIEKVFLIDDHVGCSFAGLASDGRVLIDYARNIALQHRLIYDEPVSIDYLTKSVADVKQMYTQHGGVRPFGVALVIAGIDKSVPKLYMTEPSGQYMPYQAVAIGQGYYTATEFLEKNYKEDLTIEDTILLALKALSATLKPNEKLTPNTVEIGYASTQTGLFLKMTSEDKNMYLQKL
In the case of B1, the binding entry in assay [1] was “binds”.

B2: proteasome α subunit (PsmA), genome-encoded, non-tagged (protein, UniProt C3MQ43 1-241)
chain: MAFGPAAMGYDRAITIFSPDGSLYQVDYAFEAVKKGWTAIGIKSKSGVVIASEKRKAQSLLDVDSIEKVFLIDDHVGCSFAGLASDGRVLIDYARNIALQHRLIYDEPVSIDYLTKSVADVKQMYTQHGGVRPFGVALVIAGIDKSVPKLYMTEPSGQYMPYQAVAIGQGYYTATEFLEKNYKEDLTIEDTILLALKALSATLKPNEKLTPNTVEIGYASTQTGLFLKMTSEDKNMYLQKL
Turning to B2, the results for the binding result in assay [2] and in assay [3] were “binds” and “binds weakly”, respectively.
